In publication doi:10.1101/2023.05.09.540020:
These are yes or no findings as the source states them, for the method shown. Binding seen in cells or lysates may run through a third protein. Some entries that bind do so weakly or less than the wild type.

The chains behind the UniProt entries cited, without tags or fusion partners.
UniProt Q16531: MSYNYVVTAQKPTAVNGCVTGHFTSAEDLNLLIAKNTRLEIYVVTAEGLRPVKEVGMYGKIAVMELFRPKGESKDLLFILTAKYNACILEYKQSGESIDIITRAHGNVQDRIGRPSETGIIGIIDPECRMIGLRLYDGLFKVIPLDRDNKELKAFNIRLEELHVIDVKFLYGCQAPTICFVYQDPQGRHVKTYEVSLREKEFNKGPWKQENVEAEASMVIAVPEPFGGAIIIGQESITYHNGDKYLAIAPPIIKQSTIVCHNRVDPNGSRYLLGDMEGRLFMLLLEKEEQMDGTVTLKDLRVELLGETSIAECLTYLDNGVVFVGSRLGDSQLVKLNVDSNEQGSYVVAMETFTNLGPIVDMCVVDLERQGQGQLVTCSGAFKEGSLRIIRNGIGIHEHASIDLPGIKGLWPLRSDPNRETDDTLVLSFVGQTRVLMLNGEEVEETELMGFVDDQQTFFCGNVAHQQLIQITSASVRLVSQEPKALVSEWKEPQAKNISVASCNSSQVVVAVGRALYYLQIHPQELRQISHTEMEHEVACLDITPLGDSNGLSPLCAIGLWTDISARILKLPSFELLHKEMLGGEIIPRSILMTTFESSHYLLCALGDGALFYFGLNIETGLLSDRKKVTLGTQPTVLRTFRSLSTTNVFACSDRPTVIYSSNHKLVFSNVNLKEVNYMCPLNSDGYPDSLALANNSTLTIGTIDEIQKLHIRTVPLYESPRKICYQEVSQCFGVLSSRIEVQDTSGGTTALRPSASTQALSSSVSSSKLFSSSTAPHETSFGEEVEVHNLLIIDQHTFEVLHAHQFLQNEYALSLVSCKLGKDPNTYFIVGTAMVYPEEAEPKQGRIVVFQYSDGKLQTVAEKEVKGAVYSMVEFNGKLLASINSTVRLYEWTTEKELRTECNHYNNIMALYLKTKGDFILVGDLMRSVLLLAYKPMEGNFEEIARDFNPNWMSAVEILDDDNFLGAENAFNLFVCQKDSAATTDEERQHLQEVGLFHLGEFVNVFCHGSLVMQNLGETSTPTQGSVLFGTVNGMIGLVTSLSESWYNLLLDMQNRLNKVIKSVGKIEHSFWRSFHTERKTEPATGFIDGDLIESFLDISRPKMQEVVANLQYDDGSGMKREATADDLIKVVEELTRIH

Molecular target: DNA Damage Binding 1 (DDB1) protein (human (endogenous in HEK293T)) (UniProt Q16531)
Assay: co-IP

B1: Transcription Termination Factor (TTF1), endogenous (protein, UniProt Q15361 1-905)
chain: MEGESSRFEIHTPVSDKKKKKCSIHKERPQKHSHEIFRDSSLVNEQSQITRRKKRKKDFQHLISSPLKKSRICDETANATSTLKKRKKRRYSALEVDEEAGVTVVLVDKENINNTPKHFRKDVDVVCVDMSIEQKLPRKPKTDKFQVLAKSHAHKSEALHSKVREKKNKKHQRKAASWESQRARDTLPQSESHQEESWLSVGPGGEITELPASAHKNKSKKKKKKSSNREYETLAMPEGSQAGREAGTDMQESQPTVGLDDETPQLLGPTHKKKSKKKKKKKSNHQEFEALAMPEGSQVGSEVGADMQESRPAVGLHGETAGIPAPAYKNKSKKKKKKSNHQEFEAVAMPESLESAYPEGSQVGSEVGTVEGSTALKGFKESNSTKKKSKKRKLTSVKRARVSGDDFSVPSKNSESTLFDSVEGDGAMMEEGVKSRPRQKKTQACLASKHVQEAPRLEPANEEHNVETAEDSEIRYLSADSGDADDSDADLGSAVKQLQEFIPNIKDRATSTIKRMYRDDLERFKEFKAQGVAIKFGKFSVKENKQLEKNVEDFLALTGIESADKLLYTDRYPEEKSVITNLKRRYSFRLHIGRNIARPWKLIYYRAKKMFDVNNYKGRYSEGDTEKLKMYHSLLGNDWKTIGEMVARSSLSVALKFSQISSQRNRGAWSKSETRKLIKAVEEVILKKMSPQELKEVDSKLQENPESCLSIVREKLYKGISWVEVEAKVQTRNWMQCKSKWTEILTKRMTNGRRIYYGMNALRAKVSLIERLYEINVEDTNEIDWEDLASAIGDVPPSYVQTKFSRLKAVYVPFWQKKTFPEIIDYLYETTLPLLKEKLEKMMEKKGTKIQTPAAPKQVFPFRDIFYYEDDSEGEDIEKESEGQAPCMAHACNSSTLGGQGRWII
binding: binds
